This is one part of the list. The source made no clear call on entries shown without one.
Biological target: Scavenger receptor class B member 1 (Mus musculus) (UniProt Q61009)
Test: enhancers of HDL binding to SR-BI, dose response, orthogonal assay for SR-BI HDL uptake inhibitor project, ldlA[mSR-BI] cells, Alexa488-HDL, powder samples, set 2 (AID 588810)
Details: ldlA[mSR-BI] CHO cells, Alexa488-HDL binding fluorescence, 3 h; at 35 µM (top of the series)
In short: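 Benchmarks: positive control BLT-1 1 µM; Material: ldlA CHO cells expressing mouse SR-BI (ldlA[mSR-BI]); Also added: Alexa488-HDL with apolipoprotein-linked dye, 10 µg/mL; Technique: bottom-read fluorescence after two PBS washes; Compound dosing: dose series of compound; Timing: cells seeded one day ahead, 3 h HDL-compound exposure at 37 °C.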

Amino acid sequences for entries named in this document (tags omitted). A change or cut given only in a name is not applied to a line headed by its entry.
UniProt Q61009: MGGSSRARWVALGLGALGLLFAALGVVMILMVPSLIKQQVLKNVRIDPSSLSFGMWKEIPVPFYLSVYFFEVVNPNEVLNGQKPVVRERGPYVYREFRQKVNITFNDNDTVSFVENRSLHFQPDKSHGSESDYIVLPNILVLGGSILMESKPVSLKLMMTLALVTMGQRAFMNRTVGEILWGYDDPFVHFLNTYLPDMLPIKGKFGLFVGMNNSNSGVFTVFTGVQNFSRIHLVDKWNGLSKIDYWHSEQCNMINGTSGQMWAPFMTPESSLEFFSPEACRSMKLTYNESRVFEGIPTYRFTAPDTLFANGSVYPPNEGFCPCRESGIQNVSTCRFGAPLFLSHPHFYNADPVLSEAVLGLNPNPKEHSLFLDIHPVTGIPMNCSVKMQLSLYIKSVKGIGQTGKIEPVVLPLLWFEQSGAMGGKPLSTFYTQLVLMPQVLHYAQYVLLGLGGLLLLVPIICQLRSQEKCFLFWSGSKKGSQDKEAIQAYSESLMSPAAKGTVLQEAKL

activity increase (HDL binding): 99.5%
SMILES: CCCCCCC1CCC/C1=N\NC(N)=S (stereo unspecified)

Reference: PubChem BioAssay AID588810 (Broad Institute, 2011)
